# Out of some 400,000 compounds screened, about 5,500 (1.4%) were called active. The shares of active, inactive and inconclusive entries below differ from those in the screen. Calls come from the whole dose curve; as a rule, active = well fitted cell-killing curve with a large enough effect; inconclusive = small, poorly fitted or top-dose-only effect, or effect the other way; inactive = flat fitted curve, though single readings scatter. Where the call is inconclusive, the potency comes from a doubtful curve fit.
# Test: qHTS assay for MDR1-selective chemotherapeutics: Primary screen using the parental adenocarcinoma cell KB-3-1; note: nearly all actives have a fitted effect of over 60% in size
# Conditions: KB-3-1 viability, CellTiter-Glo ATP luminescence, 72 h; activity change, negative = cytotoxic: at 46.1 µM (top of the series)
# Procedure, shortened: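 Using CellTiter-Glo luminescence, growth of non-resistant KB-3-1 adenocarcinoma cells is assessed 72 h after pin-tool compound addition at 37 °C. Normalized responses across the concentration series yield fitted curves.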
# % is set by controls: 0 for no effect and ±100 for the full control effect; potency is the fitted concentration of half-maximal effect.
SMILES,Potency,"activity change, negative = cytotoxic"
COc1ccc(NC(=O)c2c[nH]n3c(=O)cc(C4CCN(C(=O)OC(C)(C)C)CC4)nc23)cc1Cl,"inconclusive: 6.51 µM [rising, full curve]",
CC(C)c1ccc(N(CC(=O)Nc2ccc(S(=O)(=O)N3CCOCC3)cc2)S(C)(=O)=O)cc1,"inconclusive: 29.1 µM [cytotoxic, single point]",
CCOC(=O)C1=C(O)C(=O)NC(c2ccccc2)=C(OCC)C1,"inconclusive: 14.6 µM [rising, partial curve, poor fit]",
Cc1cc(N/N=C/c2cccc(Cl)c2)nc(NCc2ccccc2)n1,"inconclusive: 18.4 µM [cytotoxic, single point]",
CCOC(=O)c1ccc2c(c1)N(CC(=O)Nc1ccc(CC)cc1)C(=O)c1ccccc1S2,"inconclusive: 20.6 µM [cytotoxic, single point]",
CCOc1ccc(-n2c(Cc3cc(=O)[nH]c(=O)[nH]3)nnc2SCC(=O)NC2CCCC2)cc1,"inconclusive: 29.1 µM [cytotoxic, single point]",
CCN(Cc1ccccc1)c1ccc(N=Nc2nn(C)c(C)c2[N+](=O)[O-])cc1,"inconclusive: 29.1 µM [cytotoxic, single point]",
N#CCCN1CCN(CCC#N)c2ccccc21,"inconclusive: 20.6 µM [cytotoxic, single point]",
CN(CC(=O)Nc1ccccc1C(F)(F)F)C(=O)COc1cccnc1[N+](=O)[O-],inactive,
CCC1CCCCN1S(=O)(=O)c1ccc(-n2cnnn2)c(C)c1 (stereo unspecified),inactive,
COc1cc(-c2c(CCO)sc3ccccc23)cc(OC)c1OC,"inconclusive: 20.6 µM [cytotoxic, single point]",
Cc1ccc(Nc2nc(Cl)nc(NC3CCCCC3)n2)cc1,"inconclusive: 23.1 µM [cytotoxic, single point]",
CC(=O)Nc1ccc(S(=O)(=O)NC(CSc2ccc(C(=O)O)cc2[N+](=O)[O-])C(=O)O)cc1 (stereo unspecified),inactive,
COC(=O)C1(C(=O)OC)CCCCN(S(=O)(=O)c2ccc(C)cc2)CCC1,"inconclusive: 23.1 µM [cytotoxic, single point]",
O=c1[nH]c2ccccc2cc1CN(CC1CCCO1)S(=O)(=O)c1ccccc1 (stereo unspecified),"inconclusive: 7.31 µM [rising, partial curve]",
CCOc1ccccc1C(=O)N[C@H](C(=O)Nc1nc2c(s1)CCCC2)C(C)C,"inconclusive: 29.1 µM [cytotoxic, single point]",
CC(Sc1nnc(NC2CC2)s1)C(=O)Nc1ccc(S(N)(=O)=O)cc1 (stereo unspecified),"inconclusive: 29.1 µM [rising, single point]",
Cc1ccc(-c2nc3ccc(C)cn3c2CC2CCCCC2)cc1,"inconclusive: 29.1 µM [cytotoxic, single point]",
O=C(Nc1ccc(-c2nc3ccccc3o2)cc1)C1CCCO1 (stereo unspecified),"inconclusive: 32.6 µM [cytotoxic, single point]",
Cc1ccc2cc(CN(Cc3ccco3)C(=O)c3cccs3)c(=O)[nH]c2c1,"inconclusive: 3.26 µM [cytotoxic, partial curve, poor fit]",
Cn1cccc1/C=C1\SC(=Nc2ccc(O)cc2)NC1=O,active: 0.291 µM,

# Laid out differently: entries from further up
SMILES | Potency | activity change, negative = cytotoxic
CCN(Cc1ccccc1)c1ccc(N=Nc2nn(C)c(C)c2[N+](=O)[O-])cc1 | inconclusive: 29.1 µM [cytotoxic, single point] | 
N#CCCN1CCN(CCC#N)c2ccccc21 | inconclusive: 20.6 µM [cytotoxic, single point] | 
CN(CC(=O)Nc1ccccc1C(F)(F)F)C(=O)COc1cccnc1[N+](=O)[O-] | inactive | 
CCC1CCCCN1S(=O)(=O)c1ccc(-n2cnnn2)c(C)c1 (stereo unspecified) | inactive | 
COc1cc(-c2c(CCO)sc3ccccc23)cc(OC)c1OC | inconclusive: 20.6 µM [cytotoxic, single point] | 
Cc1ccc(Nc2nc(Cl)nc(NC3CCCCC3)n2)cc1 | inconclusive: 23.1 µM [cytotoxic, single point] | 
CC(=O)Nc1ccc(S(=O)(=O)NC(CSc2ccc(C(=O)O)cc2[N+](=O)[O-])C(=O)O)cc1 (stereo unspecified) | inactive | 
COC(=O)C1(C(=O)OC)CCCCN(S(=O)(=O)c2ccc(C)cc2)CCC1 | inconclusive: 23.1 µM [cytotoxic, single point] | 
O=c1[nH]c2ccccc2cc1CN(CC1CCCO1)S(=O)(=O)c1ccccc1 (stereo unspecified) | inconclusive: 7.31 µM [rising, partial curve] | 
CCOc1ccccc1C(=O)N[C@H](C(=O)Nc1nc2c(s1)CCCC2)C(C)C | inconclusive: 29.1 µM [cytotoxic, single point] | 

# (list continues)

SMILES,Potency,"activity change, negative = cytotoxic"
Nc1[nH]n2c(=O)c3c(nc2c1N=Nc1ccccc1)CCCC3,active: 11.6 µM,
COC(=O)c1sccc1NC(=O)NC1CCCCC1,"inconclusive: 29.1 µM [cytotoxic, single point]",
CCOC(=O)C1(CCOc2ccccc2)CCN(Cc2cccc(-n3cccn3)c2)CC1,"inconclusive: 29.1 µM [cytotoxic, single point]",
Cc1cc(C)c2c(=N)c3ccccc3n(CCCCCCCCn3c4ccccc4c(=N)c4c(C)cc(C)nc43)c2n1,"inconclusive: 29.1 µM [cytotoxic, partial curve, poor fit]",
O=C1COc2ccc(C(=O)COc3ccc([N+](=O)[O-])cc3)cc2N1,,inconclusive: -1.51%
CCCOC(=O)c1cc(-c2ccc(C=O)o2)ccc1Cl,"inconclusive: 29.1 µM [cytotoxic, single point]",
COc1cc(Cl)c(NS(=O)(=O)c2ccc(-c3coc(C)n3)cc2)c(OC)c1,"inconclusive: 29.1 µM [cytotoxic, single point]",
O=C(Nc1ccc(F)cc1)c1nc[nH]c1C(=O)Nc1ccc([N+](=O)[O-])cc1,"inconclusive: 29.1 µM [cytotoxic, single point]",
COc1cccc(CNC(=O)CN2C(=O)CSc3ccc(S(=O)(=O)N4CCCC4)cc32)c1,inactive,
O=C(CSc1nc2ccccc2s1)N1c2ccccc2Sc2ccccc21,"inconclusive: 29.1 µM [cytotoxic, single point]",
COC(=O)N/N=C/c1cccs1,"inconclusive: 6.51 µM [rising, full curve, poor fit]",
O=C(NCCO)C(=O)NCC1CCCN1S(=O)(=O)c1cccs1 (stereo unspecified),,inconclusive: 35%
CC(=O)NC1=NN(C(C)=O)C(C)(c2ccccc2)S1 (stereo unspecified),active: 8.2 µM,
O=[N+]([O-])c1cccc(NC(=S)N2CCc3ccccc32)c1,"inconclusive: 16.4 µM [cytotoxic, single point]",
Nc1nc2c(ncn2[C@H]2C[C@H](O)[C@@H](CO)O2)c(=O)[nH]1,"inconclusive: 11.6 µM [rising, partial curve, poor fit]",
Cc1nnc(N/N=C/c2cccc(C(F)(F)F)c2)n1N,inactive,
COc1cccc(/C=N/Nc2ncc(C(F)(F)F)cc2Cl)c1O,"inconclusive: 18.4 µM [cytotoxic, partial curve, poor fit]",
Cc1ccc(S(=O)(=O)Nc2ccc3c(c2)CC(=O)N([C@H](C)CO)C[C@H](C)[C@H](CN(C)Cc2ccc4c(c2)OCO4)O3)cc1,"inconclusive: 29.1 µM [cytotoxic, single point]",
Cc1noc2ncnc(N3CCN(c4cccc(Cl)c4)CC3)c12,"inconclusive: 18.4 µM [cytotoxic, single point]",
Cc1ccc(/C=N/NC(=O)C2COc3ccccc3O2)s1 (stereo unspecified),active: 2.06 µM,
